# Screening data, single-dose tests

By UniProt entry, the sequences of proteins in these tests, tags left out.
UniProt P9WFT3, whole entry: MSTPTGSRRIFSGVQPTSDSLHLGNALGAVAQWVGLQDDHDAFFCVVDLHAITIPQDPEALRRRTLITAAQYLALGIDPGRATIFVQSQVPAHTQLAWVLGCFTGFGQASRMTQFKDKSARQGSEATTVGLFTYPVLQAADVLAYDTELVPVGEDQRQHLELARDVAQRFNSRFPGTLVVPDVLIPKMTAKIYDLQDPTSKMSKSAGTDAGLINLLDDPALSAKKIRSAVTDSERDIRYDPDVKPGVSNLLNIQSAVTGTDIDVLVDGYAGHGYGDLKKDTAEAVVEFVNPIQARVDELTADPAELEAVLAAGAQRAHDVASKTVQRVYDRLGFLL
UniProt P9WNZ1, whole entry: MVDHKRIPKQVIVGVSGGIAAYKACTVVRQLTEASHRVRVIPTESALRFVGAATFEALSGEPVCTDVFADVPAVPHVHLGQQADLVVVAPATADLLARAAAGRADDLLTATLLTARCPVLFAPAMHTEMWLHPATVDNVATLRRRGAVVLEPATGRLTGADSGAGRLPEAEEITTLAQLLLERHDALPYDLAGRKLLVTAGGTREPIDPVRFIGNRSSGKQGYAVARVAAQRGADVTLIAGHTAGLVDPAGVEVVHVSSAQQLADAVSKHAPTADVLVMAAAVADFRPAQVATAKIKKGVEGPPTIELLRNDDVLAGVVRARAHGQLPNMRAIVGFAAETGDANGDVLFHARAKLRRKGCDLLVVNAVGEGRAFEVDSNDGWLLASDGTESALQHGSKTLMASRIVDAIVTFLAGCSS
UniProt P9WPC5, whole entry: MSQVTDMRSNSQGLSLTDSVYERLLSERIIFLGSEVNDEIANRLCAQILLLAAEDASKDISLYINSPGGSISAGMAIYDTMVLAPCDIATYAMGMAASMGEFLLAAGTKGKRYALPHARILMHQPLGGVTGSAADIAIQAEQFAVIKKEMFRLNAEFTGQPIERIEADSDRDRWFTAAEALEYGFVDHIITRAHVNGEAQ
UniProt P9WPC3, whole entry partner: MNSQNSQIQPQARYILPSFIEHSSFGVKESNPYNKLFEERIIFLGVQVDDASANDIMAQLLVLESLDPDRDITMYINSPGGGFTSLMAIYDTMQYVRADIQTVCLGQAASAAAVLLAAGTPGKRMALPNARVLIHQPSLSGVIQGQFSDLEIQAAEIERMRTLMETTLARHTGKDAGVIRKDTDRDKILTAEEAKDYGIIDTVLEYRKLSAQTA

MtTrpRS: 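Enzyme assay of tryptophanyl-tRNA synthetase; the read-out is not stated. Target: Tryptophan-tRNA ligase, Mycobacterium tuberculosis (UniProt P9WFT3). Concentration: 10 µM. Direction is not recorded; retested compounds ran higher, which suggests that high means inhibition. Size under these conditions: about 65,000 compounds, about 64 of them at 50% or above in at least one test.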
CoaBC: 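Coenzyme A biosynthesis protein CoaBC, Mycobacterium tuberculosis (UniProt P9WNZ1). Enzyme assay of CoaBC with a phosphate dye (Biomol Green) read at 650 nm. Concentration: 30 µM. Higher reads as stronger inhibition, judged from the few compounds that gave an IC50. Most strong results did not repeat in a second test. Of about 67,000 compounds tested this way, about 40 (0.06%) reached 50% or more in at least one test.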
ClpP1P2: 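ClpP1P2, Mycobacterium tuberculosis (UniProt P9WPC5 and UniProt P9WPC3). Protease assay of ClpP1P2, read by the AMC dye that it sets free. Compounds at 50 µM. Higher reads as stronger inhibition, judged from the few compounds that gave an IC50. Most other retested compounds had strongly negative values. Of about 69,000 compounds tested this way, about 10 (0.015%) reached 50% or more in at least one test.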

Each number is a percent effect as filed.
The record does not define 0% and 100%; most values in the screen are far below 50% and negative numbers occur (in some assays of this library far below -100).
The compounds are a random part of those screened.

For O=C(CSc1nc2nncc-2c(O)n1-c1ccccc1)N1CCOCC1 the result was MtTrpRS: 1.387%; CoaBC: 15.66%; ClpP1P2: 7.235%. Cc1cnn(CC2CN(Cc3nc(-c4cccnc4)no3)CCO2)c1 (configuration not stated) read MtTrpRS: -8.192%; CoaBC: -1.746%; ClpP1P2: -25.51%. For c1ccc(COC[C@H]2CCC[C@@]23CNCCO3)nc1 the result was CoaBC: 1.975%; ClpP1P2: 16.14%. COc1ccc2c(c1)nc1n2[C@@H](CNC(=O)c2cccnc2)COC1 read MtTrpRS: -7.815%; CoaBC: 0.2208%; ClpP1P2: 4.466%. For Cc1cnc(CN2CCCC2c2cnn(C)c2)cn1 (configuration not stated) the result was MtTrpRS: -6.304%; CoaBC: -0.5249%; ClpP1P2: -17.97%. For CCOCCn1c(=O)n(Cc2ccc(F)cc2)c2ncc(C(=O)O)cc21 the result was MtTrpRS: -1.784%; CoaBC: 8.547%; ClpP1P2: -6.671%.

Cn1nnnc1SCCNC(=O)c1cccc2ccnn12 gave MtTrpRS: 3.309%; CoaBC: 6.8%; ClpP1P2: -48.45%. For Cc1csc2c(N3CCC(Cn4cc(C(C)(C)O)nn4)CC3)ncnc12 the result was MtTrpRS: -2.98%; CoaBC: 5.825%; ClpP1P2: -1.107%. Result for Cc1cc(C)n(CC(=O)N2Cc3cnc(C(C)(C)C)nc3C2)n1 was MtTrpRS: 2.854%; CoaBC: 2.644%; ClpP1P2: -4.786%. Result for COc1ccc(CNC2(Cc3cc(CC(C)C)on3)COC2)cc1 was MtTrpRS: 12.37%; CoaBC: 9.934%; ClpP1P2: -16.02%. For O=C(NC1CC1)[C@@H]1CCO[C@@H]2CCN(CC3CCC3)C[C@H]21 the result was MtTrpRS: -3.843%; CoaBC: 3.448%; ClpP1P2: -0.4792%. Cn1cc(C(=O)Nc2ccc(CC(=O)NC3CC3)cc2)nn1 read MtTrpRS: 6.175%; CoaBC: 0%; ClpP1P2: 2.325%.

For Cc1cc(CN(C)C(=O)NC2CCS(=O)(=O)C2)no1 (configuration not stated) the result was MtTrpRS: -0.7037%; CoaBC: 8.974%; ClpP1P2: 10.88%. For Cc1n[nH]c(C)c1C1CCCN1C(=O)c1coc(Br)c1 (configuration not stated) the result was MtTrpRS: -10.92%; CoaBC: 2.991%; ClpP1P2: -16.05%. With O=C(C1CCOCC1)N1CC[C@@H](O)[C@@H]1Cc1ccncc1 the screen gave MtTrpRS: -0.3317%; CoaBC: 1.882%; ClpP1P2: 8.473%. With COc1cccc(C(=O)Nc2ccc(OCCC(N)=O)cc2)c1OC the screen gave MtTrpRS: -4.107%; CoaBC: 6.375%; ClpP1P2: -6.697%. For CN(C)C(=O)CC1CC2(CCN(Cc3ccoc3)CC2)c2ccccc21 (configuration not stated) the result was MtTrpRS: 0.1383%; CoaBC: 6.767%; ClpP1P2: -5.995%. Cc1nn(CCC(=O)N2CCCC(OCc3cccnc3)C2)c(C)c1C (configuration not stated) read MtTrpRS: 5.358%; CoaBC: 6.345%; ClpP1P2: -14.4%.

Result for CN(CC(=O)Nc1cc(-c2cc(Cl)cc(Cl)c2)[nH]n1)S(C)(=O)=O was MtTrpRS: -8.359%; CoaBC: -4.911%; ClpP1P2: -9.952%. c1ccc(CSc2nnc(C3CC3)s2)nc1 gave MtTrpRS: -6.416%; CoaBC: 2.016%; ClpP1P2: 3.879%. CN1C(=O)[C@H]2CC[C@@H]1CN(C(=O)Nc1cccc3ccccc13)C2 gave MtTrpRS: 2.714%; CoaBC: 12.15%; ClpP1P2: 5.913%. With O=C(c1cccnc1)N1CCOC(Cc2ccccc2Cl)C1 (configuration not stated) the screen gave MtTrpRS: 4.243%; CoaBC: -8.475%; ClpP1P2: -11.88%. Result for CCS(=O)(=O)c1ccc(NCc2csc(C(C)C)n2)cc1 was MtTrpRS: -4.107%; CoaBC: -9.163%; ClpP1P2: 6.52%. For CCCNC(=O)CN(C)C1CCN(c2ccc(Cl)cc2)CC1 the result was MtTrpRS: -0.7607%; CoaBC: -6.931%; ClpP1P2: -3.455%.

O=C(NCC1(O)COCCN(Cc2ccc(O)cc2)C1)c1cnccn1 (configuration not stated) gave MtTrpRS: -1.698%; CoaBC: -0.9501%; ClpP1P2: -40.74%.

For reference, 2 entries once more:

- c1ccc(COC[C@H]2CCC[C@@]23CNCCO3)nc1 | CoaBC: 1.975%; ClpP1P2: 16.14%
- Cc1nn(CCC(=O)N2CCCC(OCc3cccnc3)C2)c(C)c1C (configuration not stated) | MtTrpRS: 5.358%; CoaBC: 6.345%; ClpP1P2: -14.4%

Source: ChEMBL document CHEMBL3988442, “University of Dundee, Small-Polar-MMV Screening Library” (2021).